Results: patent US6468547B1, “Enhancement of tumor cell chemosensitivity and radiosensitivity using single chain secretory antibodies” (UAB Research Foundation, priority 1996, dated 2002)

Test system: DU145 cells
Conditions: DU145, 150 ng/ml, 4 days

CN[C@@H]1C[C@H]2O[C@@](C)([C@@H]1OC)n1c3ccccc3c3c4c(c5c6ccccc6n2c5c31)C(=O)NC4 [staurosporine]
killing: ~20%
